According to the supplement of paper PMC10849652:
The other results are listed elsewhere or left out.

Protein sequences, listed by entry. Tags and fused reporters are not part of them. Lines headed by an entry give the natural chain unless they say otherwise; changes in a name come on top.
UniProt Q9NVP1: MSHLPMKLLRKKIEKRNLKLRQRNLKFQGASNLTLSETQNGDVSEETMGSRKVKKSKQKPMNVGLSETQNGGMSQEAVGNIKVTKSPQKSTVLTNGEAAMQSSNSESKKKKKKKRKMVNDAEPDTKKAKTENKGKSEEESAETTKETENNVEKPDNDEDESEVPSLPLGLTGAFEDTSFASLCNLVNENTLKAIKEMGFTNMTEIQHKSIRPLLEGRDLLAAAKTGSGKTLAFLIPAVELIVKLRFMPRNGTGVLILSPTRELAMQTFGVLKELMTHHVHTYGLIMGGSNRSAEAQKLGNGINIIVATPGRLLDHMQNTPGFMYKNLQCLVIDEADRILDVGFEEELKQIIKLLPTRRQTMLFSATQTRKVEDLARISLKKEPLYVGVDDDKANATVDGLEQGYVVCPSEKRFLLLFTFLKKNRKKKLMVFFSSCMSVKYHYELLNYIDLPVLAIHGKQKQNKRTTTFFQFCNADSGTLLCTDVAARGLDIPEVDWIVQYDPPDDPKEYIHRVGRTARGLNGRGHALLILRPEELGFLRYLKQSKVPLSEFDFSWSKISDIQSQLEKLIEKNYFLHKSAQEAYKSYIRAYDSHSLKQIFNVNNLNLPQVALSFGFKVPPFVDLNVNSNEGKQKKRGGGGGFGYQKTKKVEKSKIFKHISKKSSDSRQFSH
UniProt P80370: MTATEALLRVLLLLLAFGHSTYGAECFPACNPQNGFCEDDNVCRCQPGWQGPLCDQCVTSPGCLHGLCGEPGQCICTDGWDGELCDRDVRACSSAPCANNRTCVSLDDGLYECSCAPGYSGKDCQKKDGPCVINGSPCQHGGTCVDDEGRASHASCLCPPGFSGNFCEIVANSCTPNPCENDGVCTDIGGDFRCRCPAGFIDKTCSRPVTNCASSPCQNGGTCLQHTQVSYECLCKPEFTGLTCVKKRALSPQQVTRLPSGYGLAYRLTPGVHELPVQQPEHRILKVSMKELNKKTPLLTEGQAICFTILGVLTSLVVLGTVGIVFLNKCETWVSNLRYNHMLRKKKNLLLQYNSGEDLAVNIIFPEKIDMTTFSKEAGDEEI
UniProt Q9BSY9: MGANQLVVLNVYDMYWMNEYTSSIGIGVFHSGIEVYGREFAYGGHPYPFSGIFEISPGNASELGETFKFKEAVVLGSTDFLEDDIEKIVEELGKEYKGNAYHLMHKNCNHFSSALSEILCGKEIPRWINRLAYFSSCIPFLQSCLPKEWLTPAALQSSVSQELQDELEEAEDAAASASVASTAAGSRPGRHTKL
UniProt Q9H4E7, whole entry, looked up: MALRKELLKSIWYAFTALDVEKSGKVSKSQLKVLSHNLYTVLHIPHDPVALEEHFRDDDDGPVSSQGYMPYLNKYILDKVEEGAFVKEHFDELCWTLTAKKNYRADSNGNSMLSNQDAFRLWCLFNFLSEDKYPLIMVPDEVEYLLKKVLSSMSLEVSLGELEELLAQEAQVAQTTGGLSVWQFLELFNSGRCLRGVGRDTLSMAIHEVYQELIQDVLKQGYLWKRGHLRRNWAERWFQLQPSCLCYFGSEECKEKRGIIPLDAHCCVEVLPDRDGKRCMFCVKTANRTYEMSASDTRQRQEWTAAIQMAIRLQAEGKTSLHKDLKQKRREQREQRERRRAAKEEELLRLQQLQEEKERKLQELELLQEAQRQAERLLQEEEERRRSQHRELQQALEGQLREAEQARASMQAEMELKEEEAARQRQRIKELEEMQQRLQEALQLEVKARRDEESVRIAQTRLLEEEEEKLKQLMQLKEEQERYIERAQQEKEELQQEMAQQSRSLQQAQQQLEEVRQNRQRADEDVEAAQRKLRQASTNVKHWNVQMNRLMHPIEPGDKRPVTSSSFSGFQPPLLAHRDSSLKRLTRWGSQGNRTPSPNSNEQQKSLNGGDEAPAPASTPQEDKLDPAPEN
UniProt Q08495: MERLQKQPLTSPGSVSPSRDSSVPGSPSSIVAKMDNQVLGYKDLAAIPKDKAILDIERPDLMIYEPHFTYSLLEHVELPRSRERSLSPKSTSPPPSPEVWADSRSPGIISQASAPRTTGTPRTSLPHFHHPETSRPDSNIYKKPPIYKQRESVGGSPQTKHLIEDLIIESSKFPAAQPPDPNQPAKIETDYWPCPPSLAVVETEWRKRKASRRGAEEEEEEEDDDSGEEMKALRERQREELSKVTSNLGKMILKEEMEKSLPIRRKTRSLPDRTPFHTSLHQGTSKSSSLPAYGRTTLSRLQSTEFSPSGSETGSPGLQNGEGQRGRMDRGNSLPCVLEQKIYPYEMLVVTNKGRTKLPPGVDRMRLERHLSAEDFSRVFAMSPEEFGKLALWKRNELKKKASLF
UniProt Q96HY7: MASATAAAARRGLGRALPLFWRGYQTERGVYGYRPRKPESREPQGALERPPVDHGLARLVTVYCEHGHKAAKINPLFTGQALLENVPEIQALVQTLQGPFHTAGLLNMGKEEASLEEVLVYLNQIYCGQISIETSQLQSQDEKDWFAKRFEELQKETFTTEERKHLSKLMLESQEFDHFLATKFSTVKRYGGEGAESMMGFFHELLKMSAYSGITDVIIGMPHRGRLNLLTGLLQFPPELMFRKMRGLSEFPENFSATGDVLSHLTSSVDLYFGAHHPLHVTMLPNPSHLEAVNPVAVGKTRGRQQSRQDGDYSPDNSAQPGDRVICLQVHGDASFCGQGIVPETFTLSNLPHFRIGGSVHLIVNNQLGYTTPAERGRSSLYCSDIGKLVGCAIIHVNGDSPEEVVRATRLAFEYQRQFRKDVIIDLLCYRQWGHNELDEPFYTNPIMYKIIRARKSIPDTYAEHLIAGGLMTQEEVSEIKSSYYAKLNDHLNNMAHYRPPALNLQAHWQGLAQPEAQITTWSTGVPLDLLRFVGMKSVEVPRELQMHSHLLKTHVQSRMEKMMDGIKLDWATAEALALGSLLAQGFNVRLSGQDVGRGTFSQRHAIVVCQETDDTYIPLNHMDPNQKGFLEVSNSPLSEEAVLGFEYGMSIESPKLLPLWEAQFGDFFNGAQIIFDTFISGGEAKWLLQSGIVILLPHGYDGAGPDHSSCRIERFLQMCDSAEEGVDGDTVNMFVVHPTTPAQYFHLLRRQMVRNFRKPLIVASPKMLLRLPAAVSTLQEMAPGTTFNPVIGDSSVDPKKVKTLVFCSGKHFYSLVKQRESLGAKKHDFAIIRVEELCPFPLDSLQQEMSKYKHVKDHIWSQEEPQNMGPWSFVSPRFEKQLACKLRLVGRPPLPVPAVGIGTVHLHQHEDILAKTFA
UniProt Q13206, whole entry, looked up: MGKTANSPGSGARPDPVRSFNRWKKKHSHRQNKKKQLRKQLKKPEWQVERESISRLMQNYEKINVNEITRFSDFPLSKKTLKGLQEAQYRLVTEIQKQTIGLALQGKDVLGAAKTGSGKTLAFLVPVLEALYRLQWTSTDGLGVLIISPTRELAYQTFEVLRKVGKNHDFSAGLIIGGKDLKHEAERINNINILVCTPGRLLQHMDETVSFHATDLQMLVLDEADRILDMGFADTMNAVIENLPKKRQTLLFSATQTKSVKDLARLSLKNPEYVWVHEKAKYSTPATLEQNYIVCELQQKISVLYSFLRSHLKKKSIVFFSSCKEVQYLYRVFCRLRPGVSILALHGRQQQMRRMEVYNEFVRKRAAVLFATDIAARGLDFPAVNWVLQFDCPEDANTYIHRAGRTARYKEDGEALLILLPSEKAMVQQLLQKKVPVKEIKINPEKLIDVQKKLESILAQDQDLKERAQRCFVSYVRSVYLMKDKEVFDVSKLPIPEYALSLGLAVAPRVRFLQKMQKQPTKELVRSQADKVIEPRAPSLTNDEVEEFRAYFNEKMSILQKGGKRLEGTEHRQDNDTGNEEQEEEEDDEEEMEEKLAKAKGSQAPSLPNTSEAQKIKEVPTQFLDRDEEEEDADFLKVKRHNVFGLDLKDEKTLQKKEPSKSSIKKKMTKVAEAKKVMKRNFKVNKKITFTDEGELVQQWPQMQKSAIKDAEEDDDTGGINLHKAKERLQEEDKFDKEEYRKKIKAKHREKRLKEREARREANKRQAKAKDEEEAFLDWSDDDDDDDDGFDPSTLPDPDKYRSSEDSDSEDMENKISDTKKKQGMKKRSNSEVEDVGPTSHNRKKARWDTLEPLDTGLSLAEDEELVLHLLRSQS
UniProt Q9UGM3: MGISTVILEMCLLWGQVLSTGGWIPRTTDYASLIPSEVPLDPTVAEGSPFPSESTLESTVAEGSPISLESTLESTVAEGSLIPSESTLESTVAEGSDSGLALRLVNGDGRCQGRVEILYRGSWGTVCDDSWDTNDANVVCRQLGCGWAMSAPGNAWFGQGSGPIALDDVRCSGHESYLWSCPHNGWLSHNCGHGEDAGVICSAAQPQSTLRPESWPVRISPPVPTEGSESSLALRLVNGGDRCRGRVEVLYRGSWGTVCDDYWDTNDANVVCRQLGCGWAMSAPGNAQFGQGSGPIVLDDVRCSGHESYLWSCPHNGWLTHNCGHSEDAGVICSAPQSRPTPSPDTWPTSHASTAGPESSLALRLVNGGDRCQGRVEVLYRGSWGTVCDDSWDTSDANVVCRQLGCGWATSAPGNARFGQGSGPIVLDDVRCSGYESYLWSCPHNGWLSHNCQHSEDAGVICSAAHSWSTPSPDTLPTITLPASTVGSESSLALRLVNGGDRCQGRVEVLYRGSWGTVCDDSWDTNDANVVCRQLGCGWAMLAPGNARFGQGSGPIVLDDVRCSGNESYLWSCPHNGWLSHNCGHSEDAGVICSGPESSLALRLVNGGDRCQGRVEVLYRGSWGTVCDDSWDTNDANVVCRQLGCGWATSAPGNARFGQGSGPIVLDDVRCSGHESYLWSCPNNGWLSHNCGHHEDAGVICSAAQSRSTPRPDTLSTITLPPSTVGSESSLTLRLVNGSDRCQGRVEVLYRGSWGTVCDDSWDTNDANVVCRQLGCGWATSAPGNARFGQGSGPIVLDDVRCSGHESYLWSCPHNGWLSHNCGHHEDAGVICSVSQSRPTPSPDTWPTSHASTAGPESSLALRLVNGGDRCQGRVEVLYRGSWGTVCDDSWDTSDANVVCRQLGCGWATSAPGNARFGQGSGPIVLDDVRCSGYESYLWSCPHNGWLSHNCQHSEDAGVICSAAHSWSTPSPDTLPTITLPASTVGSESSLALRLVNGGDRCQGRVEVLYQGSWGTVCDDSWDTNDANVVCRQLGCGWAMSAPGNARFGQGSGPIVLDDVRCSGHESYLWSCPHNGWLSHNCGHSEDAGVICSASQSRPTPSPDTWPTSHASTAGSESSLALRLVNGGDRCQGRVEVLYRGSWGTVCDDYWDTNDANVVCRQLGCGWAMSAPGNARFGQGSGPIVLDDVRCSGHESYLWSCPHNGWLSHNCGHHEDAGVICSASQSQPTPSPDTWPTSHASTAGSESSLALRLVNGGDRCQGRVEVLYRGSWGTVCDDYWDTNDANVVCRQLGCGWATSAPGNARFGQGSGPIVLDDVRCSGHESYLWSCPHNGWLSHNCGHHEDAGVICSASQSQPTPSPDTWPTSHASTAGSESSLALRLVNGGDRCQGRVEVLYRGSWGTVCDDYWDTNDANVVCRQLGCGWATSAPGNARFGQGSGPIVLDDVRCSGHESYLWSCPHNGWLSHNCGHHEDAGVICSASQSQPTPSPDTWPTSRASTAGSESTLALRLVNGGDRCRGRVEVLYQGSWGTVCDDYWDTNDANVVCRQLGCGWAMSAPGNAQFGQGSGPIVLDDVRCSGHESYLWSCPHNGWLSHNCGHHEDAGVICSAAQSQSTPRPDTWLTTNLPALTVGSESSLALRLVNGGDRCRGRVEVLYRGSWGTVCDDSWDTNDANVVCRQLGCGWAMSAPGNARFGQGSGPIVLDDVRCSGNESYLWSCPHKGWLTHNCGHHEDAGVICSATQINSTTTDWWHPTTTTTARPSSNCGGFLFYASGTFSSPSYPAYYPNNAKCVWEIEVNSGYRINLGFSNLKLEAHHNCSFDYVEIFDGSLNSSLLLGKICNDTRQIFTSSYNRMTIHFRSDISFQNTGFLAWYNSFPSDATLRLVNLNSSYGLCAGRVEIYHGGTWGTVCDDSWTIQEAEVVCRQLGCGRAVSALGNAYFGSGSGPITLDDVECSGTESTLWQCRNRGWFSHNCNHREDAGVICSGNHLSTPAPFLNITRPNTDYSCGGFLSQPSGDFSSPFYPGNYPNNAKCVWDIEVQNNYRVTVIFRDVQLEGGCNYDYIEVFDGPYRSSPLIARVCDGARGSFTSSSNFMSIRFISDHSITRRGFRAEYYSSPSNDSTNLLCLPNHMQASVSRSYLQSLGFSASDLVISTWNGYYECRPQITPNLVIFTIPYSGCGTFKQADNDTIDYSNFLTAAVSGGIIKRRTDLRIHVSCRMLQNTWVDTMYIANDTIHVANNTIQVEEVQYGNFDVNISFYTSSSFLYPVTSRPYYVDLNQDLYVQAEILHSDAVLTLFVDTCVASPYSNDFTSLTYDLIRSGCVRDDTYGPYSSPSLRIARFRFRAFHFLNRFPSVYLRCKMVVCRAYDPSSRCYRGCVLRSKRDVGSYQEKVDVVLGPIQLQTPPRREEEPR

What was measured:
Assay in all cases: log2 fold change, soluble protein after heating vs DMSO (PISA); higher = thermal stabilisation; K562 cells, 10 uM, 30 min; active = over 0.2 and 3.5 SD of the protein, either way, in both replicates (recomputed)
[1] = compound: C/C(=N\NC(=O)C1=CC(=CC=C1)S(=O)(=O)N2CCOCC2)/C3=C(C=CC(=C3)Cl)O
In short: (§1)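 Soluble protein was defined as the supernatant after 21,000xg for 90 min. It came from K562 cells at 2×10^6 cells/mL given 10 μM compound for 30 min, heated in aliquots for 3 min across 48°C-58°C, pooled, and extracted in PBS with 0.5% NP-40 at 4°C, and was quantified by TMTpro 16plex LC-MS/MS with equalised channel sums. Thermal stability against control samples, from duplicates, is reported as log2 fold change.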

[2] = compound: C1=CC2=C(C=CC(=C2)/C=C\3/C(=O)NC(=NCC4=CC=CS4)S3)N=C1
In short: as §1

[3] = compound: C1=CC=C2C(=C1)C3=NNC4=CC=CC(=C43)C2=O
In short: as §1

[4] = compound: C1CCN(C1)C(=O)NC2=CC=CC(=C2)NC3=NC=C(C(=N3)NCCC4=CN=CN4)Br
In short: as §1

[5] = compound: C1CN(CCC1(CC2=CC=C(C=C2)Cl)N)C3=NC=NC4=C3C=CN4
In short: as §1

[6] = compound: C1=CC2=NC=CN=C2C=C1/C=C/3\C(=O)NC(=O)S3
In short: as §1

[7] = compound: C#Cc1cccc(Nc2ncnc3cc(OCCOC)c(OCCOC)cc23)c1 [erlotinib]
In short: as §1

[8] = compound: C1=CC(=CC=C1C2=NC3=C(N2)C=C(C=C3)C(=O)N)OC4=CC=C(C=C4)Cl
In short: as §1

[9] = compound: C1=CC=C(C=C1)C2=NC(=C(N2)C3=CC=NC=C3)C4=CC(=C(C=C4)Cl)O
In short: as §1

[10] = compound: C1=CC(=C(C=C1Cl)C2=NC3=NC=CN=C3C(=N2)NC4=CC=NC=C4)F
In short: as §1

Measured: log2 fold change

DDX18 (UniProt Q9NVP1)
inactive: [1] -0.075 | [2] 0.04 | [3] -0.047 | [4] 0 | [5] -0.018

DENND1A isoform 6 (UniProt Q8TEH3)
inactive: [6] -0.328 | [4] -0.315 | [5] -0.034

DERPC (UniProt P0CG12)
inactive: [7] 0.197 | [8] -0.346 | [6] 0.078 | [9] -0.034

DENND1C (UniProt Q8IV53)
inactive: [7] 0.159 | [8] -0.106

DDX11L8 (UniProt A8MPP1)
inactive: [6] 0.059

DLK1 (UniProt P80370)
inactive: [10] 0.028

DNAH5 (UniProt Q8TE73)
inactive: [7] 0.014 | [10] 0.036 | [8] 0.001 | [6] -0.005 | [9] -0.067 | [4] 0.084 | [5] 0.095

DDX24 (UniProt Q9GZR7)
inactive: [1] -0.251 | [10] -0.401 | [2] -0.176 | [9] 0.019 | [3] 0.026 | [4] 0.125 | [5] -0.278

DDR1 isoform 5 (UniProt Q08345)
inactive: [7] -0.187 | [10] -0.045 | [8] -0.003 | [9] 0.008

DMKN (UniProt Q6E0U4)
inactive: [7] -0.012 | [8] 0.185 | [6] 0.076 | [9] -0.014 | [4] -0.03 | [5] -0.43

DDX46, A0A0C4DG89
inactive: [10] 0.174

DERL2 (UniProt Q9GZP9)
inactive: [1] 0.098 | [10] 0.111 | [2] -0.03 | [6] -0.019 | [9] -0.032 | [3] 0.099 | [4] -0.01 | [5] 0.104

Eight successive entries already listed, for reference:
DDX11L8 (UniProt A8MPP1)
inactive: [6] 0.059

DLK1 (UniProt P80370)
inactive: [10] 0.028

DNAH5 (UniProt Q8TE73)
inactive: [7] 0.014 | [10] 0.036 | [8] 0.001 | [6] -0.005 | [9] -0.067 | [4] 0.084 | [5] 0.095

DDX24 (UniProt Q9GZR7)
inactive: [1] -0.251 | [10] -0.401 | [2] -0.176 | [9] 0.019 | [3] 0.026 | [4] 0.125 | [5] -0.278

DDR1 isoform 5 (UniProt Q08345)
inactive: [7] -0.187 | [10] -0.045 | [8] -0.003 | [9] 0.008

DMKN (UniProt Q6E0U4)
inactive: [7] -0.012 | [8] 0.185 | [6] 0.076 | [9] -0.014 | [4] -0.03 | [5] -0.43

DDX46, A0A0C4DG89
inactive: [10] 0.174

DERL2 (UniProt Q9GZP9)
inactive: [1] 0.098 | [10] 0.111 | [2] -0.03 | [6] -0.019 | [9] -0.032 | [3] 0.099 | [4] -0.01 | [5] 0.104

Next part:

DDX55 (UniProt Q8NHQ9)
inactive: [6] 0 | [4] 0.026 | [5] -0.042

DESI2 (UniProt Q9BSY9)
inactive: [7] -0.057 | [8] 0.007 | [6] 0.097 | [4] -0.05 | [5] 0

DHX34 (UniProt Q14147)
inactive: [7] 0.06 | [10] -0.063 | [8] 0.148 | [9] 0.003 | [4] 0.038 | [5] 0.01

DEF6 (UniProt Q9H4E7)
inactive: [10] -0.311 | [9] -0.046 | [4] 0.08 | [5] 0.029

DMTN isoform 2 (UniProt Q08495)
inactive: [6] -0.078 | [9] 0.115 | [4] -0.152 | [5] 0.151

DNAH10 (UniProt Q8IVF4)
inactive: [7] 0.325 | [10] 0.251 | [8] -0.187 | [6] -0.054 | [4] -0.052 | [5] 0.137

DHTKD1 (UniProt Q96HY7)
inactive: [7] -0.124 | [10] -0.013 | [8] 0.074 | [6] 0.179 | [4] 0.087 | [5] -0.035

DHX35 (UniProt Q9H5Z1)
inactive: [10] -0.097

DDX10 (UniProt Q13206)
inactive: [7] -0.14 | [8] 0.237

DET1 isoform 2 (UniProt Q7L5Y6)
inactive: [9] -0.026

DECR1 (UniProt E5RJD2)
inactive: [6] -0.047

DMBT1 isoform 6 (UniProt Q9UGM3)
inactive: [10] -0.331 | [6] 0.041

DNAAF5 (UniProt Q86Y56)
inactive: [1] -0.074 | [10] -0.564 | [2] 0.042 | [6] -0.023 | [9] 0.032 | [3] -0.056 | [4] 0.055 | [5] -0.125

DDX52 (UniProt Q9Y2R4)
inactive: [6] -0.101 | [9] -0.158

DNA2 (UniProt P51530)
inactive: [10] -0.068 | [6] 0.047

DHX32 (UniProt Q7L7V1)
inactive: [10] 0.007 | [4] -0.09 | [5] 0.013

DMTF1 (UniProt Q9Y222)
inactive: [1] 0.074 | [2] 0.171 | [3] 0.128 | [4] -0.022 | [5] 0.1

DENND1B (UniProt Q6P3S1)
inactive: [1] 0.105 | [10] -0.136 | [2] -0.131 | [6] 0.056 | [3] 0.032

DIRAS1 (UniProt O95057)
inactive: [4] 0.085 | [5] 0.056

DENND4A isoform 2 (UniProt Q7Z401)
inactive: [1] 0.055 | [10] -0.045 | [2] 0.118 | [6] 0.052 | [9] -0.045 | [3] -0.162 | [4] 0.129 | [5] 0

DDX25 (UniProt Q9UHL0)
inactive: [1] 0 | [2] -0.262 | [6] -0.026 | [3] 0.148 | [4] 0.256 | [5] 0.141

DDB1 isoform 2 (UniProt Q16531)
inactive: [10] 0.017 | [6] 0.205

DDHD1 (UniProt Q8NEL9)
inactive: [7] -0.001 | [8] 0.067 | [6] 0.258 | [9] -0.117
